PubChem BioAssay AID652259 – Drosophila RNAi Screening Center, 2013
Aim: 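Genome-wide hunt for genes that control Wingless pathway activity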 (primary screen). Cell system: Drosophila clone 8 imaginal disc epithelial cells. Reagents: long dsRNA against Drosophila genes. Challenge: pathway stimulated by co-transfected Wingless expression plasmid. Measured: 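Firefly luciferase from a tcf-site Wingless reporter, measured alongside co-transfected Renilla luciferase that tracks transfection; pathway stimulated by a Wingless plasmid; the firefly-to-Renilla ratio is not deposited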. Scale: firefly reporter light: higher = more Wg reporter light, before normalisation; Renilla control light: higher = more transfected or surviving cells. Call rule: 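a knock-down is a candidate when at least two out of four statistical tests show it departing from its plate mean; one test alone signals a weak candidate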. Meaning of the calls: active = candidate regulator (raises or lowers reporter); inactive = not a candidate.
In all, the deposit lists about 22,000 reagents; this is an unselected part of those that have a named target and a result. Over the whole deposit, 233 (1.1%) are marked active. 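Light values are raw, unnormalised plate reads; the ratio scores behind the reporter calls were not deposited.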 A number with no mark means an inactive call. Reagents against one gene are numbered here. A plus sign joins genes that one reagent is predicted to hit. The record does not give: the amount of reagent, the time to read-out, the dose of the treatment.

Target gene	reagent	firefly reporter light, replicate 1	firefly reporter light, replicate 2	Renilla control light, replicate 1	Renilla control light, replicate 2
CG14657	1	12685		4784	
CG14657	2	3832		736	
CG13040	1	11531		4549	
RpS7	1	4874		2071	
CG8578	1	2353	4885	822	1446
CG8360	1	3427	8681	1555	4839
NFAT	1	2192		389	
NFAT	2	26244		12096	
Pms2	1	9923		1304	
Naxd	1	4083		1600	
sna	1	3329	6375	972	2598
CG31038	1	3936	3969	1226	1098
CG31038	2	5499		3643	
CG31038	3	6929		3712	
CG7579	1	4611		1944	
CG42814	1	5162		1820	
gsb	1	3072	6453	685	2439
Nufip	1	5265		1939	
CG17999	1	8215		2363	
CG3744	1	19049		15224	
snRNA:U1:95Cc + CG43285 (retired record)	1	2780		853	
CG8117	1	20688		10763	
CG10559	1	14250		16501	
Pfas	1	10299		4900	
CG31313	1	5330		884	
CG15236	1	4267	10521	265	4758
CG15236	2	7.47e5	7.46e5	1.97e5	1.29e5
dikar	1	3152		851	
dikar	2	7.48e5	7.96e5	1.94e5	2.16e5
CG33704	1	12172		6806	
CG14857	1	15402		3250	
Ugt302E1	1	11906		3968	
COX7A	1	12043		2949	
CG34136	1	16103		19202	
CG9135	1	8341		4251	
CG9498	1	2343	6997	248	2337
p38b	1	3549	8083	1517	3273
CG1324	1	1907	4220	963	2168
Cpr62Ba	1	5613		2435	
Arpc1	1	9653		3417	
Dph5	1	2279	7252	1427	2003
Pect	1	14853		2186	
Pect	2	2685	8501	1010	2611
AMPKalpha	1	4304	4848	1456	1302
CG17996 + Tsen2	1	2227	3634	1126	2300
sun	1	16640		6699	
CG42789	1	3248		486	
pch2	1	14816		3560	
Cyp6v1	1	9689		7829	
